Literature values, collected in patent US6630295B2, “High throughput assay for monitoring polycation or polyanion molecular weight, degradation or synthesis” (Insight Strategy & Marketing Ltd., priority 2001, dated 2003).
Some results were stated once for a whole list of compounds, not compound by compound.

System: B16 melanoma, Lewis lung carcinoma and mammary adenocarcinoma cells
Settings: lung metastases induced by B16 melanoma, experimental animals

For laminarin sulfate, the “reduction of the incidence of lung metastases” value is given as greater than 90%.
